# Ends that are not written are not given here.
# Test: general procedure: Boc solid-phase peptide synthesis; p-methylbenzhydrylamine hydrochloride resin
# Settings: whole synthesis, scale of the general procedure 0.2-0.5 mmoles
row,Substance,final HPLC purity [%]
1,EGPFDVQETEIAVQAKQPDVEEILSKGQHLYKEKPATQPVKRKLEDLSSE-NH2,97.6
2,LISLESEERGELERILADLEEENRNLQAEYDRLKQQHEHKGLSPLPSPPE-NH2,99.9
3,PEDVDTTYPDKKSILMYITSLFQVLPQQVSIEAIQEVEMLPRPPKVTKEE-NH2,99.6
4,YEREDVQKKTFTKWVNAQFSKFGKQHIENLFSDLQDGRRLLDLLEGLTGQ-NH2,95.9

# From patent publication US5340718 (dated 1994)
